## Library screening results

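Viability assay of Plasmodium falciparum sporozoites; the read-out is not stated. The concentration is filed as 10 mM, unlikely as a test dose, so the dose is not known. The record gives no direction; compounds that gave an IC50 in retests scored well above the rest, so higher reads as lower viability. Strong results were mostly tested again. About 34,000 compounds were tested under these conditions; 0.84% (about 280) showed 50% or more at least once.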

Results are given as percent effect. The record does not define 0% and 100%; most values in the screen are far below 50% and negative numbers occur (in some assays of this library far below -100). The compounds are a random part of those screened. Two or more numbers in one place are separate tests of the same structure; such repeats can differ widely.

structure | percent effect
O=C(NC1CC2(CCN(CCO)CC2)Oc2ccccc21)c1csnn1 (centres unmarked) | 0.5963
Cc1nc2ccccc2nc1CN1CCCCC1Cn1cncn1 (centres unmarked) | 2.007
COc1ccc(S(=O)(=O)N2CCC(O)(CN(C)C)C2)cc1 (centres unmarked) | 3.264
Cc1ccc([C@@H]2CN(C(=O)c3csc(C)n3)C[C@H]2NC(=O)C2CC2)cc1 | -15.49
C[C@@H]1CN(CC(C)(C)N2CCOCC2)C[C@@]1(O)C1CC1 | 0.3286
COc1cccc(CNCC2CN(C)CCO2)c1 (centres unmarked) | 17.06
[H][C@@]12CNC[C@]1([H])CN(Cc1c(C)noc1C)C2 | 5.719
O=C(NCCn1ccnc1)N1CCN(Cc2ccsc2)CC1 | 0.9887
CC(NC(=O)NCCCc1n[nH]c(N)c1C#N)c1ccccc1F (centres unmarked) | 14.69
CCOc1ccc(CNC(C)c2c(C)nn(C)c2C)cc1 (centres unmarked) | 3.509
COC[C@@H]1CCCN1C(=O)CCc1c(C)nn(C)c1C | -2.509
O=C(c1ccc(F)cc1)N1CCOC(c2nc(-c3ncccn3)no2)C1 (centres unmarked) | -8.794
CN(CCc1ccccc1)C1CCCN(Cc2nccn2C)C1 (centres unmarked) | 6.543
CCOc1ccc(N(C)Cc2nnc(C)o2)cc1 | -5.216
CC1CCCCN1CCNC(=O)c1ccn(-c2ccccc2)n1 (centres unmarked) | 9.852
CN(C)Cc1cccc(-c2cccnc2C(=O)NCc2ccccn2)c1 | -1200
Cc1ccc2nc(-c3nc4c([nH]3)CCCNC4=O)cn2c1 | -60.21 & -56.66 & 32.3
Cc1cc(Cc2ccccc2)cc(C2CCCNC2)n1 (centres unmarked) | 9.427
COc1ncnc(N)c1CNCCc1ccccc1 | -5.744 & 11.46
O=C(c1nc(=O)[nH][nH]1)N1CCCC(c2cc(C(F)(F)F)[nH]n2)C1 (centres unmarked) | 4.929
COCCCC1CCCCN1Cc1cn2cc(C)ccc2n1 (centres unmarked) | 0
Cc1ccc(Oc2nccnc2C2CCN(C(=O)C(C)(C)N)CC2)cc1 | 6.695
[H][C@@]12COC[C@]1([H])[C@@H](OCCN(C)C)CN2C(=O)c1ccc[nH]1 | -9.732
COc1ccc(C(=O)N2CCC(Nc3cccnn3)CC2)cn1 | 16.63
COc1ccc(OC)c(CNCc2ccnc(N3CCOCC3)c2)c1 | 9.422
CC(C)N1CCCC(CCCc2ccccn2)(C(=O)O)C1 (centres unmarked) | -9.834
CN1CC[C@H](N(Cc2ccccc2)Cc2ccccc2)C[C@H](O)C1 | -3.732
Cc1ccccc1CN(CCN(C)C)Cc1ccc(C(=O)O)cc1 | -1.385
CC(=O)N1CCCC(Cc2cnc(-n3ccnc3)cn2)C1 (centres unmarked) | 6.71
CCN1Cc2ccccc2N(C(=O)C2CCC2)CCC1=O | 20.44
COc1ccnc(N2CCN(CC(O)CN3CCOCC3)CC2)n1 (centres unmarked) | -20.56
COc1cc(CNC(c2ccccc2)c2nccn2C)cc(OC)c1 (centres unmarked) | 6.524
C[C@@H](CO)Nc1nccc(-c2cnc3sc(Cl)cn3c2=O)n1 | 3.302
CC(=O)N1CCC1c1nc(-c2ccc(C)s2)no1 (centres unmarked) | -4.556
Cc1ccc(CC(=O)N2CCCC2Cn2nc(C)cc2C)cn1 (centres unmarked) | 0.1932
CCc1ccc(C(=O)N2CCN(CC(C)O)CC2)o1 (centres unmarked) | 6.265
Cn1ccnc1CN1CCN(Cc2noc(-c3ccccc3)n2)CC1 | 0.4902
Cn1ncc2c(NC3CCSC3)nc(-c3ccncc3)nc21 (centres unmarked) | 13.58
c1ccc(Cc2nnc(CN3CCn4c(nnc4C4CC4)C3)o2)cc1 | -1.643
Cn1nc2c(cc1=O)CN(Cc1nnc(-c3ccco3)o1)CC2 | 17.23
Cn1cc(Cl)cc1C(=O)N1CCN(Cc2cccs2)CC1 | 10.32
COCCNC(=O)c1cc2c(s1)CCN2C(=O)c1ccccc1 | 2.922
N#Cc1cccc(C(=O)N2CCCC(O)(CO)CC2)c1 (centres unmarked) | -32.15
CNCC(=O)N1CC(c2cc(Nc3nc(C)cs3)nc(C)n2)C1.Cl | 4.183
CN(Cc1ccc(-n2ccnc2)cc1)CC1CCCN1c1cccnn1 (centres unmarked) | 7.381
[H][C@@]12CCN(Cc3cc(C)on3)C[C@@]1([H])O[C@H](c1nc(C3CC3)cs1)C2 | -2.277
Cc1occc1CNC(=O)N1CCC(Cc2cnn(C)c2)C1 (centres unmarked) | -1.437
CCOc1ccc(NC(=O)Cn2cc(I)cn2)cc1 | -11.53 & -26.53 & -26.76
O=C(COc1ccc2c(c1)CCC2)N1CCOCC1c1ncon1 (centres unmarked) | -3.04 & -0.5757 & -10.88
O=C1COc2cc(C(=O)NS(=O)(=O)c3cc(Cl)ccc3Cl)ccc2N1 | -13.02
Cc1cc(C(=O)NCc2cccnc2OC(C)C)no1 | -0.16
CCOC(C)c1nc(CN2CCN(c3nccc(C)n3)CC2)cs1 (centres unmarked) | -11.88
CC(C)OC(=O)N1CCCCC1CCn1cccn1 (centres unmarked) | -18 & -26.59
CCOc1ccc(CNCCCn2ccnc2)cc1Br | -2.632
COc1cccc(CCC2CCCN(C(=O)C3=NN(C)C(=O)CC3)C2)c1 (centres unmarked) | -10
O=C(NCCCO)Nc1cccc(Cl)c1F | -2.912
Cn1cc(CN2CCCC3(CCN(C(=O)c4ccoc4)C3)C2)cn1 (centres unmarked) | 15.49
Cc1nnc(CN2CCN(CC(O)c3ccccc3)CC2)o1 (centres unmarked) | 8.419
CC(C)Oc1ncccc1CNC(=O)c1cc[nH]n1 | -1.76
O=C(O)C(F)(F)F.[H][C@@]12CCN(CCc3ccccc3)C[C@@]1([H])O[C@@H](C(=O)NC1CC1)C2 | -7.266

From ChEMBL document CHEMBL3988442, “University of Dundee, Small-Polar-MMV Screening Library” (2021).